# Results deposited as PubChem BioAssay AID504808 (Drosophila RNAi Screening Center, 2011)
# Aim: 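Chromatin factors that keep E2F targets switched off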 (primary screen)
# Cells: Drosophila S2 cells
# Knock-down reagent: long dsRNA against Drosophila genes
# Read-out: 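Firefly luciferase driven by E2F sites, normalised to Renilla luciferase on the same minimal promoter, measured by plate reader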
# Scale: E2F firefly: higher = more E2F reporter activity; Renilla normaliser: higher = more normaliser reporter signal
# Active means: 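a knock-down counted as active when the firefly/Renilla E2F signal rose above 50%, a threshold chosen arbitrarily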
# The screen tested about 21,000 reagents; below is an unselected part of those with a known target gene and a result. In the full data, 18 (0.084%) got an active call. 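Raw counts without plate normalisation, one of two replicates; the ratio scores behind the calls were not deposited.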 No sequences are given here. Not stated in the record: the amount of reagent, the time to read-out.
predicted target,amplicon,"E2F firefly, rep 1","Renilla normaliser, rep 1",call
Irp-1B (GeneID 41269),DRSC16720,1.53e5,6473,inactive
Sid (GeneID 43390),DRSC16588,1.16e5,6931,inactive
CG8519 (GeneID 38745),DRSC10985,95492,3608,inactive
Eig71Ef (GeneID 39707),DRSC11153,1.63e5,7610,inactive
CG4613 (GeneID 39586),DRSC10435,1.60e5,6406,inactive
CG12025 (GeneID 38246),DRSC08230,94744,4106,inactive
Cyp4p1 (GeneID 45524),DRSC07372,1.62e5,5600,inactive
mh (GeneID 32480),DRSC20168,1.22e5,6178,inactive
CG5909 (GeneID 43274),DRSC15914,1.16e5,5891,inactive
Sas-4 (GeneID 40859),DRSC12505,1.25e5,6643,inactive
CG13685 (GeneID 38869),DRSC10043,94464,3767,inactive
S1P (GeneID 40399),DRSC11810,1.39e5,6514,inactive
Pgant3 (GeneID 35627),DRSC05942,87427,3782,inactive
CG32795 (GeneID 31270),DRSC18609,84814,5040,inactive
CG32795 (GeneID 31270),DRSC18610,1.18e5,5745,inactive
PIG-Q (GeneID 117366),DRSC19138,92857,2932,inactive
Hyccin (GeneID 37019),DRSC06983,70469,3862,inactive
Socs44A (GeneID 35786),DRSC06828,1.49e5,4806,inactive
CG16998 (GeneID 38847),DRSC10235,1.14e5,4547,inactive
Rab39 (GeneID 31684),DRSC17827,38922,3024,inactive
CG9586 (GeneID 34241),DRSC03270,1.46e5,5046,inactive
CG4467 (GeneID 42747),DRSC15585,1.06e5,6117,inactive
CG32017 (GeneID 317823),DRSC17183,77956,2707,inactive
dpy (GeneID 318824),DRSC00233,1.38e5,6189,inactive
dpy (GeneID 318824),DRSC00234,1.39e5,5594,inactive
dpy (GeneID 318824),DRSC00472,1.51e5,5035,inactive
Pdh (GeneID 39812),DRSC11249,87262,4057,inactive
CG8745 (GeneID 39530),DRSC11033,78623,3187,inactive
CG8745 (GeneID 39530),DRSC11034,1.03e5,4917,inactive
CG5674 (GeneID 35072),DRSC02874,77517,4058,inactive
sNPF-R (GeneID 40195),DRSC10836,1.28e5,5968,inactive
CG44774 (GeneID 31424),DRSC18342,1.10e5,6399,inactive
Obp83g (GeneID 170878),DRSC12269,1.18e5,6620,inactive
CG11149 (GeneID 33800),DRSC02130,1.39e5,5100,inactive

2 entries from above, arranged by “E2F firefly, rep 1”, lowest first:
predicted target,amplicon,"E2F firefly, rep 1","Renilla normaliser, rep 1",call
Sid (GeneID 43390),DRSC16588,1.16e5,6931,inactive
Irp-1B (GeneID 41269),DRSC16720,1.53e5,6473,inactive
